# The supplement of paper PMC6411743
# The chains behind the UniProt entries cited, without tags or fusion partners. Where a name states a change or a piece, a line headed by the entry shows the natural chain unless it says otherwise.
# UniProt Q9Y5Y2: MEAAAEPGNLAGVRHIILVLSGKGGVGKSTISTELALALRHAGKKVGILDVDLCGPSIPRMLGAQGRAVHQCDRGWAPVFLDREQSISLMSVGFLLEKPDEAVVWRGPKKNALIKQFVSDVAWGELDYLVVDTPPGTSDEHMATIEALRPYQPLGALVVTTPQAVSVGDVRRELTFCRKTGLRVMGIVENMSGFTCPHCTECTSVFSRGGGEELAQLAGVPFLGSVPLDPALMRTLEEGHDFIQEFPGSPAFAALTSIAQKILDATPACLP
# UniProt Q9Y2B0: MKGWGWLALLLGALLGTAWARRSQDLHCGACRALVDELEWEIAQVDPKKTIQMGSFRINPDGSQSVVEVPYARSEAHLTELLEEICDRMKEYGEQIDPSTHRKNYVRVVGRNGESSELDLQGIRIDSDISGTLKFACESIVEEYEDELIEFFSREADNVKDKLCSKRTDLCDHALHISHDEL
# UniProt Q9Y4K3: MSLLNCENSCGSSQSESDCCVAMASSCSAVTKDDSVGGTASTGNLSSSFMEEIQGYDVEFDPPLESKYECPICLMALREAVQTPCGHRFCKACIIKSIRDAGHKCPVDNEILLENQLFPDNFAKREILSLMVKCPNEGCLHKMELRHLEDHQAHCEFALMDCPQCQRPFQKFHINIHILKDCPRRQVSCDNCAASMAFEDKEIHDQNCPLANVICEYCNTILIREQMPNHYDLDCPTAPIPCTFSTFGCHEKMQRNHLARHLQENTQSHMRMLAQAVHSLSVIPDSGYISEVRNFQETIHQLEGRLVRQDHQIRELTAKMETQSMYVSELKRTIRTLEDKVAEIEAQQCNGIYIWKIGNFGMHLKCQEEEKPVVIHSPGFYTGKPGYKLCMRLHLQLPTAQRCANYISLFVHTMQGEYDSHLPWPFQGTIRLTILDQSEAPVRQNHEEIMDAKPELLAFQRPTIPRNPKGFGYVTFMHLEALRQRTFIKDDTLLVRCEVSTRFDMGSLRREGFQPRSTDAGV
# UniProt Q9Y2P8: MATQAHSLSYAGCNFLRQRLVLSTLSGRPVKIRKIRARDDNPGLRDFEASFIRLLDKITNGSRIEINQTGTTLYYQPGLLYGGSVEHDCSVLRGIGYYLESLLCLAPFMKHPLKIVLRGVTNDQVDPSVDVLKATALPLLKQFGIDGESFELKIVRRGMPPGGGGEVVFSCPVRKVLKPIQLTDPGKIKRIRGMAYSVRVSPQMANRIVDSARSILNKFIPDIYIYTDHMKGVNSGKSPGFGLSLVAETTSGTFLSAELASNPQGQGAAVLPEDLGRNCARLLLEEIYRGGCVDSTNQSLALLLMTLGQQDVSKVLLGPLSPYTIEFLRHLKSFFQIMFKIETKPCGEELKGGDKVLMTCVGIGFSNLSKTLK
# UniProt Q9Y3B2, whole entry: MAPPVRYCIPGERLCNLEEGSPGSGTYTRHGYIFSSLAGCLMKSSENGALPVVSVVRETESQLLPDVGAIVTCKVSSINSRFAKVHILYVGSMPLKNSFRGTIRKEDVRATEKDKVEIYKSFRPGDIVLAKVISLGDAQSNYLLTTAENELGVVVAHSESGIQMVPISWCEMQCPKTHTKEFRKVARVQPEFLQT
# UniProt Q9Y6A4: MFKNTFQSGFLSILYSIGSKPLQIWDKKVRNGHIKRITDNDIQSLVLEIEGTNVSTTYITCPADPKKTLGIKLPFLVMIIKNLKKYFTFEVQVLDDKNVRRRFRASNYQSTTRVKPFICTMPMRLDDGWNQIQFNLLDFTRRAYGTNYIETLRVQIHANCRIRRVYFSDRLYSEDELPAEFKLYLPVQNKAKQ
# UniProt Q9Y5Z7: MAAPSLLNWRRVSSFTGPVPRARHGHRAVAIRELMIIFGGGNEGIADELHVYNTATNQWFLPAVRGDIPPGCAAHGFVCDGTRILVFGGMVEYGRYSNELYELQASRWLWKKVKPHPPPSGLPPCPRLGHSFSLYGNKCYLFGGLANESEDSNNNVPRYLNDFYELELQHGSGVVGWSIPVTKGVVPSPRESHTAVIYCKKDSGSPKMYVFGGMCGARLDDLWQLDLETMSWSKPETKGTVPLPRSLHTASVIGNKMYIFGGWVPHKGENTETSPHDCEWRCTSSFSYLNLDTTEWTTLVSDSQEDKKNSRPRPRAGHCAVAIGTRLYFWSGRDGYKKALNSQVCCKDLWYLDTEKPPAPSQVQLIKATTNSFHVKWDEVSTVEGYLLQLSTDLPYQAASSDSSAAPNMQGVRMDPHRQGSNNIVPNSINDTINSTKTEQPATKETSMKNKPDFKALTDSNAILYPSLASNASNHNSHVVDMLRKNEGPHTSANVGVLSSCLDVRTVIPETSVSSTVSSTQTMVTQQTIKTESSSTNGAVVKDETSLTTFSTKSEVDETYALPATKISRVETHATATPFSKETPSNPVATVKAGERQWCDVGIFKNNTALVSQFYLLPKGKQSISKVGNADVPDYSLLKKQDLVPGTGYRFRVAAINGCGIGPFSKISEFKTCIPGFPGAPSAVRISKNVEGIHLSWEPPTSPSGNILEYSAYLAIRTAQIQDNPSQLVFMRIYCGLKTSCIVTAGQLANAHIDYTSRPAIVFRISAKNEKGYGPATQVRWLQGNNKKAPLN
# UniProt Q9Y3P9: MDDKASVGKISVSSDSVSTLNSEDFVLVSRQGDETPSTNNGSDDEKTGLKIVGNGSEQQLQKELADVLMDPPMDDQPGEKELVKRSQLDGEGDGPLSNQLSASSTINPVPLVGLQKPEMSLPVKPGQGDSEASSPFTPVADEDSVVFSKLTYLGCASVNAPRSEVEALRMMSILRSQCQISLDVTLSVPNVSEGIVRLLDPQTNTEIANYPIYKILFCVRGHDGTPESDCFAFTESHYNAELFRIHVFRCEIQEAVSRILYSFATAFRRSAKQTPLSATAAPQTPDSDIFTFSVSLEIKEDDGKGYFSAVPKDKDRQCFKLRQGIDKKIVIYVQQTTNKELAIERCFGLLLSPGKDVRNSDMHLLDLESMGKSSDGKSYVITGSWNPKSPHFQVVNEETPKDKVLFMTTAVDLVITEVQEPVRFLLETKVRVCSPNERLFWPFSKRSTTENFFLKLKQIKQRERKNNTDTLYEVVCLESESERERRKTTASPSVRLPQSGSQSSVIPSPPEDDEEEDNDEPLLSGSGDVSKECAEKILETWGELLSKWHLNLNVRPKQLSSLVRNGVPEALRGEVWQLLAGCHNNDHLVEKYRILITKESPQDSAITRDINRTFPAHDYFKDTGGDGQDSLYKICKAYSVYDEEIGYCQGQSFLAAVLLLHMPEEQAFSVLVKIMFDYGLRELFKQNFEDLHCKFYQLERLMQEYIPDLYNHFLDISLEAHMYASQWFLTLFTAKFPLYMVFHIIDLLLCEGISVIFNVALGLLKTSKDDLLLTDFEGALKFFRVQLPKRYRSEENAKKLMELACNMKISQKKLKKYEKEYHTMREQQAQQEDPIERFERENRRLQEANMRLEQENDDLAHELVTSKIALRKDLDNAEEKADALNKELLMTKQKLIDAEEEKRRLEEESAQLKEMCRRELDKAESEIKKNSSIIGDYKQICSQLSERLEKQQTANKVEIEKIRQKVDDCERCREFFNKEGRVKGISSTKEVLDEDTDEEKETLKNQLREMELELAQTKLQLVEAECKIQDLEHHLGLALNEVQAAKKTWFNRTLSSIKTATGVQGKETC
# UniProt Q9Y3E2: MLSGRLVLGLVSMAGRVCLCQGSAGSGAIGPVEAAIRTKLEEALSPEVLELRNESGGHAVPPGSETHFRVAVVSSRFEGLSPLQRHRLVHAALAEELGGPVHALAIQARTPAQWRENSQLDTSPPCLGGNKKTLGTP
# UniProt Q9Y6V7: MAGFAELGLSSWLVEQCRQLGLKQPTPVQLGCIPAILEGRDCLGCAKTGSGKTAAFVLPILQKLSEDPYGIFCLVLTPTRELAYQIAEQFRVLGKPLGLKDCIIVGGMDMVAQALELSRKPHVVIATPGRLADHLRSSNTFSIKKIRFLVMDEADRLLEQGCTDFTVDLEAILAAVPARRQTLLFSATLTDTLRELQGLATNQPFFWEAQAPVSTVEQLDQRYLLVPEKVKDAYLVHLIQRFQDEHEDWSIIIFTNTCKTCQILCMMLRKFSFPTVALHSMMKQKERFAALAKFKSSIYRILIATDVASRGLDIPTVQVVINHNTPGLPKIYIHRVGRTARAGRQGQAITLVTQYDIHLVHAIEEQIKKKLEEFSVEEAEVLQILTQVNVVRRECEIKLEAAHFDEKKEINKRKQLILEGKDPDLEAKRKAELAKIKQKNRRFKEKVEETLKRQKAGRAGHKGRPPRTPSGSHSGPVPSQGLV
# UniProt Q9Y3C8: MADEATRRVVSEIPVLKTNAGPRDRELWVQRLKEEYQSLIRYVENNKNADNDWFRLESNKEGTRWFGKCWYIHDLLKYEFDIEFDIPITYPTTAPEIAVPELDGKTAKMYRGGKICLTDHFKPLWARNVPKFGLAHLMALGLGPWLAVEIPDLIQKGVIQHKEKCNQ
# UniProt Q9Y2I7: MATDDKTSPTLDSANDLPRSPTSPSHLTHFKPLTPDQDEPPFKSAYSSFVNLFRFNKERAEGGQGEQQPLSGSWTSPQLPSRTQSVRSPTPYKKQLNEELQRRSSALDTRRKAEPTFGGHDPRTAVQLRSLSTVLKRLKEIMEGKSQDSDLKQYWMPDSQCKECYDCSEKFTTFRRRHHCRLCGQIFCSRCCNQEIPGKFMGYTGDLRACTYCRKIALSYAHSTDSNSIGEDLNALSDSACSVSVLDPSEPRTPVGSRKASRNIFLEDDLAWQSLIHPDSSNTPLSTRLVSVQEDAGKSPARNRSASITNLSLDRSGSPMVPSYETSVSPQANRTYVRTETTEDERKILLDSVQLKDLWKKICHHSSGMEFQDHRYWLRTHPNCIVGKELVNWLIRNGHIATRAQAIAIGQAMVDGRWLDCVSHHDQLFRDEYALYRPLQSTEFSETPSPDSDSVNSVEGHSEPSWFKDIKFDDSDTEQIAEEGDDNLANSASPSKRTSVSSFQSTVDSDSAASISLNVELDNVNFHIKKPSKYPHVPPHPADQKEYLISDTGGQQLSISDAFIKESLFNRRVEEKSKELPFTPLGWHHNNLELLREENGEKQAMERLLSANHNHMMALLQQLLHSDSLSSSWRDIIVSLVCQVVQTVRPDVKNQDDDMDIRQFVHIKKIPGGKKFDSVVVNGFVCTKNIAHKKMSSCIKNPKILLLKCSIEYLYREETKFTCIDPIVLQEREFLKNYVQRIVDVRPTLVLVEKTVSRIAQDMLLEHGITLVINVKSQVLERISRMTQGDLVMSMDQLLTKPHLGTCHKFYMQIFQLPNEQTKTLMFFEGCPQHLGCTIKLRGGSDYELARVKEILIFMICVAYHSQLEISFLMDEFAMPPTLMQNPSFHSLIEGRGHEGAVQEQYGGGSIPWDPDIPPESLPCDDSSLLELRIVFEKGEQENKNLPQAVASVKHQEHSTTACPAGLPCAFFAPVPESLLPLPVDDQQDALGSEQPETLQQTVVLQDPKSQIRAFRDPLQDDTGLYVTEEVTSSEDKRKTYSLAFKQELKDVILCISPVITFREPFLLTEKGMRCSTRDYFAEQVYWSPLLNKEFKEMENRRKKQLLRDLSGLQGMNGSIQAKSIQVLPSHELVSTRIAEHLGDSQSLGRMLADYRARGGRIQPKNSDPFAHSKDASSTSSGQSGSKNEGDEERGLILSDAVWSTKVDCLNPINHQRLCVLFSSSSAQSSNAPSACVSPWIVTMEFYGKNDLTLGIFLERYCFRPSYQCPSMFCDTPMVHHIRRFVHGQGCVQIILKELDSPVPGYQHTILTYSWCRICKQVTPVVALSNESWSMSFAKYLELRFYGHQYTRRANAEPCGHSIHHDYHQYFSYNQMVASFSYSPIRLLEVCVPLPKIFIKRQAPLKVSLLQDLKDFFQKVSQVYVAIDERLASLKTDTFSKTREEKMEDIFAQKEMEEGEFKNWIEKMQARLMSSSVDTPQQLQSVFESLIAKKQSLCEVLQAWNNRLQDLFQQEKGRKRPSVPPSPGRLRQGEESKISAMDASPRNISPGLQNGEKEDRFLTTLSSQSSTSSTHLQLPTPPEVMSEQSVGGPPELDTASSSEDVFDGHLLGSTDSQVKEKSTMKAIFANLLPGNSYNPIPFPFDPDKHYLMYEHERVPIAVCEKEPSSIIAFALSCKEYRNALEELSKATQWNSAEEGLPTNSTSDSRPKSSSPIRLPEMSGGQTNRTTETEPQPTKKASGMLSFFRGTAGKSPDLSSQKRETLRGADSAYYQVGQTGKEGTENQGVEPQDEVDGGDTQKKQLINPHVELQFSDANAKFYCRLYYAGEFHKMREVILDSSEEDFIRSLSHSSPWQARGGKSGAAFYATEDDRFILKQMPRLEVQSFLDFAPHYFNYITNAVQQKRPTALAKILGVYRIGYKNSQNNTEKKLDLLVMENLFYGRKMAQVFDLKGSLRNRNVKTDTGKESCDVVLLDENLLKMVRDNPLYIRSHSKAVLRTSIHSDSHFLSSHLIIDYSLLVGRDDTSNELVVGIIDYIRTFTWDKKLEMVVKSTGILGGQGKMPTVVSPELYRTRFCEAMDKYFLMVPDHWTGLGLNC
# UniProt Q9Y2Y1: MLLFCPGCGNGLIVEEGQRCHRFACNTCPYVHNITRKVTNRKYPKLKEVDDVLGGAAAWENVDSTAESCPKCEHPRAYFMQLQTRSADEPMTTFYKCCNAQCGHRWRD
# ± gives the standard deviation of the averaged measurements. The entries are a selection whose mix differs from that of the whole data set.
# Compound: Nc1ncnc2c1ncn2[C@@H]1O[C@H](COP(=O)(O)OP(=O)(O)OP(=O)(O)O)[C@@H](O)[C@H]1O [adenosine triphosphate]
# Assay: NP40-soluble protein abundance relative to vehicle (solubility fold change) (ratio); higher = more soluble protein in presence of ATP
# Method in brief: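 Jurkat crude lysate prepared with a Dounce homogeniser was treated at eight concentrations spanning 0.1 to 10 mM, 10 min at room temperature then 3 min at 37 °C. Solubilisation with 0.8% NP40 and benzonase and ultracentrifugation preceded TMT labelling of the supernatant for LC-MS/MS. Fold change against the detergent-processed vehicle was determined per replicate from vsn-normalised intensities, across three independent experiments.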
Target,NP40-soluble protein abundance (concentration: 1mM),NP40-soluble protein abundance (concentration: 2mM),NP40-soluble protein abundance (concentration: 4mM),NP40-soluble protein abundance (concentration: 6mM),NP40-soluble protein abundance (concentration: 8mM),NP40-soluble protein abundance (concentration: 10mM)
UniProt Q9Y6P5-2,1.13 ± 0.17,0.991 ± 0.15,1.03 ± 0.082,0.978 ± 0.082,1.07 ± 0.017,1.09 ± 0.019
NUBP2 (UniProt Q9Y5Y2),1 ± 0.065,1.02 ± 0.032,1.03 ± 0.047,1.01 ± 0.033,1 ± 0.026,1.03 ± 0.012
UniProt Q9Y3D8 and related entries,1.01 ± 0.081,1 ± 0.013,0.975 ± 0.12,1.06 ± 0.12,0.947 ± 0.045,0.969 ± 0.081
CNPY2 (UniProt Q9Y2B0),0.959 ± 0.086,0.943 ± 0.04,0.91 ± 0.027,0.971 ± 0.05,0.9114 ± 0.0072,0.859 ± 0.053
UniProt Q9Y6N5,1.05 ± 0.084,0.986 ± 0.059,0.973 ± 0.061,0.951 ± 0.087,1.02 ± 0.041,0.991 ± 0.039
NISCH (UniProt Q9Y2I1),0.983 ± 0.037,0.974 ± 0.029,0.952 ± 0.029,0.954 ± 0.051,0.925 ± 0.019,0.942 ± 0.039
TRAF6 (UniProt Q9Y4K3),1.16 ± 0.25,1.15 ± 0.2,1.22 ± 0.2,1.11 ± 0.2,1.29 ± 0.1,1.24 ± 0.2
UniProt Q9Y320 and related entries,0.976 ± 0.019,0.968 ± 0.026,0.951 ± 0.03,0.961 ± 0.053,0.952 ± 0.029,0.942 ± 0.034
RCL1 (UniProt Q9Y2P8),1.01 ± 0.15,1.03 ± 0.085,1 ± 0.1,0.994 ± 0.093,1.04 ± 0.098,1.1 ± 0.077
UniProt Q9Y5L4 and related entries,0.896 ± 0.12,0.952 ± 0.082,0.986 ± 0.13,1.03 ± 0.12,0.878 ± 0.035,0.879 ± 0.13
UniProt Q9Y2S6,0.864 ± 0.083,0.753 ± 0.078,0.73 ± 0.12,0.802 ± 0.14,0.691 ± 0.085,0.759 ± 0.2
EXOSC1 (UniProt Q9Y3B2),1.03 ± 0.044,1.05 ± 0.026,1.06 ± 0.038,1.1 ± 0.058,1.14 ± 0.051,1.19 ± 0.034
UniProt Q9Y6A4,1.01 ± 0.14,1.04 ± 0.13,1.05 ± 0.095,1.02 ± 0.18,1.1 ± 0.09,1.12 ± 0.06
HCFC2 (UniProt Q9Y5Z7),0.945 ± 0.089,1.01 ± 0.16,1.07 ± 0.058,1.16 ± 0.054,1.06 ± 0.087,1.12 ± 0.12
SAMM50 (UniProt Q9Y512),1.05 ± 0.15,0.984 ± 0.077,0.946 ± 0.075,0.84 ± 0.076,0.97 ± 0.016,0.961 ± 0.072
UniProt Q9Y5V3 and related entries,1.03 ± 0.099,1.01 ± 0.099,1.01 ± 0.079,1.07 ± 0.23,1.03 ± 0.095,1.05 ± 0.12
RABGAP1 (UniProt Q9Y3P9),0.968 ± 0.017,0.96 ± 0.018,0.961 ± 0.015,0.967 ± 0.043,0.963 ± 0.01,0.952 ± 0.034
DNMT3A (UniProt Q9Y6K1),1.06 ± 0.056,1.07 ± 0.035,1.09 ± 0.024,1.05 ± 0.031,1.05 ± 0.018,1.08 ± 0.045
BOLA1 (UniProt Q9Y3E2),0.881 ± 0.078,0.965 ± 0.078,0.956 ± 0.035,0.989 ± 0.12,0.918 ± 0.064,0.904 ± 0.076
NDUFAF1 (UniProt Q9Y375),0.998 ± 0.059,0.989 ± 0.051,0.965 ± 0.061,0.955 ± 0.075,0.986 ± 0.041,0.965 ± 0.033
UniProt Q9Y697 and related entries,1 ± 0.059,1 ± 0.042,0.993 ± 0.022,0.941 ± 0.074,0.997 ± 0.019,1.01 ± 0.044
HSPB11 (UniProt Q9Y547),1.05 ± 0.063,1.07 ± 0.066,1.03 ± 0.12,0.981 ± 0.083,1.02 ± 0.056,1.04 ± 0.05
USP20 (UniProt Q9Y2K6),1 ± 0.036,0.944 ± 0.088,0.966 ± 0.052,0.951 ± 0.087,0.986 ± 0.073,0.991 ± 0.055
SNX5 (UniProt Q9Y5X3),0.969 ± 0.023,0.9777 ± 0.0064,0.944 ± 0.012,0.972 ± 0.024,0.936 ± 0.021,0.938 ± 0.032
DDX49 (UniProt Q9Y6V7),1.06 ± 0.078,1.05 ± 0.14,1.12 ± 0.08,1.15 ± 0.12,1.19 ± 0.17,1.23 ± 0.19
FBXO7 (UniProt Q9Y3I1),0.866 ± 0.09,0.893 ± 0.055,0.861 ± 0.087,0.868 ± 0.043,0.893 ± 0.056,0.902 ± 0.033
UniProt Q9Y2I8 and related entries,1.01 ± 0.029,0.985 ± 0.012,0.983 ± 0.024,0.931 ± 0.026,0.994 ± 0.034,0.991 ± 0.016

Target,NP40-soluble protein abundance (concentration: 1mM),NP40-soluble protein abundance (concentration: 2mM),NP40-soluble protein abundance (concentration: 4mM),NP40-soluble protein abundance (concentration: 6mM),NP40-soluble protein abundance (concentration: 8mM),NP40-soluble protein abundance (concentration: 10mM)
SLC30A1 (UniProt Q9Y6M5),1.09 ± 0.097,0.922 ± 0.062,1.12 ± 0.18,1.11 ± 0.021,1.032 ± 0.0064,1.1 ± 0.12
THRAP3 (UniProt Q9Y2W1),1.23 ± 0.082,1.33 ± 0.059,1.4 ± 0.065,1.53 ± 0.08,1.51 ± 0.042,1.54 ± 0.043
UniProt Q9Y5U2 and related entries,0.952 ± 0.17,0.937 ± 0.15,0.919 ± 0.12,0.981 ± 0.18,0.917 ± 0.18,0.943 ± 0.16
TIMM9 (UniProt Q9Y5J7),0.947 ± 0.055,0.926 ± 0.096,0.975 ± 0.046,1.02 ± 0.12,0.88 ± 0.013,0.853 ± 0.095
UFC1 (UniProt Q9Y3C8),0.917 ± 0.12,0.886 ± 0.041,0.909 ± 0.095,0.901 ± 0.05,0.924 ± 0.013,0.808 ± 0.091
UniProt Q9Y2L5 and related entries,1.02 ± 0.068,1.01 ± 0.056,1.01 ± 0.035,0.974 ± 0.045,1.018 ± 0.0094,0.984 ± 0.041
UniProt Q9Y530,0.953 ± 0.046,1.02 ± 0.021,0.979 ± 0.063,0.978 ± 0.033,0.95 ± 0.052,0.987 ± 0.03
UniProt Q9Y2I7 and related entries,0.979 ± 0.023,0.98 ± 0.02,0.987 ± 0.013,0.96 ± 0.019,0.97 ± 0.027,0.971 ± 0.044
UniProt Q9Y6R1 and related entries,0.685 ± 0.15,0.61 ± 0.13,0.699 ± 0.11,0.781 ± 0.11,0.749 ± 0.085,0.781 ± 0.11
GTF3C3 (UniProt Q9Y5Q9),1.07 ± 0.046,1.04 ± 0.048,1.03 ± 0.047,1.02 ± 0.051,1.03 ± 0.045,1.01 ± 0.05
TIMM22 (UniProt Q9Y584),0.839 ± 0.049,0.872 ± 0.064,0.902 ± 0.088,0.908 ± 0.14,0.813 ± 0.15,0.855 ± 0.14
UniProt Q9Y3F4 and related entries,1.01 ± 0.023,0.982 ± 0.031,0.936 ± 0.028,0.987 ± 0.037,0.973 ± 0.028,0.953 ± 0.04
AP4B1 (UniProt Q9Y6B7),0.956 ± 0.087,1 ± 0.0028,1.01 ± 0.052,1.05 ± 0.013,0.986 ± 0.066,1.08 ± 0.037
UniProt Q9Y606 and related entries,0.98 ± 0.045,1.01 ± 0.039,0.989 ± 0.033,0.938 ± 0.021,0.961 ± 0.047,0.983 ± 0.031
UniProt Q9Y678,1.01 ± 0.068,1.01 ± 0.041,1 ± 0.041,0.958 ± 0.057,0.991 ± 0.033,1.01 ± 0.043
UniProt Q9Y679 and related entries,0.982 ± 0.093,1.01 ± 0.099,1.04 ± 0.094,1.05 ± 0.1,1.06 ± 0.096,1.06 ± 0.11
UniProt Q9Y5Y5 and related entries,1 ± 0.13,0.96 ± 0.14,0.946 ± 0.07,0.796 ± 0.16,0.914 ± 0.015,0.97 ± 0.03
UniProt Q9Y2D5 and related entries,0.913 ± 0.07,0.982 ± 0.044,1.07 ± 0.038,1.19 ± 0.05,1.15 ± 0.024,1.19 ± 0.035
UTP11 (UniProt Q9Y3A2),1 ± 0.23,0.928 ± 0.2,1.01 ± 0.3,0.976 ± 0.26,1.01 ± 0.29,1.07 ± 0.25
MRPS18B (UniProt Q9Y676),0.963 ± 0.15,0.873 ± 0.15,0.913 ± 0.17,0.894 ± 0.22,0.892 ± 0.2,0.82 ± 0.18
PRKAB1 (UniProt Q9Y478),0.898 ± 0.075,0.895 ± 0.086,0.845 ± 0.1,0.824 ± 0.092,0.828 ± 0.069,0.841 ± 0.08
UniProt Q9Y5S9 and related entries,0.959 ± 0.023,0.978 ± 0.023,0.918 ± 0.028,1 ± 0.032,0.961 ± 0.082,0.957 ± 0.033
SUPT16H (UniProt Q9Y5B9),1.06 ± 0.025,1.13 ± 0.038,1.17 ± 0.03,1.23 ± 0.028,1.28 ± 0.02,1.45 ± 0.026
UniProt Q9Y3P8 and related entries,0.987 ± 0.046,0.97 ± 0.092,1.02 ± 0.12,0.97 ± 0.13,0.887 ± 0.012,0.822 ± 0.084
POLR3K (UniProt Q9Y2Y1),0.96 ± 0.068,0.907 ± 0.049,1.05 ± 0.14,0.977 ± 0.19,0.8941 ± 0.0074,1 ± 0.074
SH3BP1 (UniProt Q9Y3L3),0.974 ± 0.045,0.969 ± 0.028,0.962 ± 0.038,0.972 ± 0.01,0.948 ± 0.042,0.945 ± 0.023

# Four entries drawn at random from those above:
Target,NP40-soluble protein abundance (concentration: 1mM),NP40-soluble protein abundance (concentration: 2mM),NP40-soluble protein abundance (concentration: 4mM),NP40-soluble protein abundance (concentration: 6mM),NP40-soluble protein abundance (concentration: 8mM),NP40-soluble protein abundance (concentration: 10mM)
UniProt Q9Y2L5 and related entries,1.02 ± 0.068,1.01 ± 0.056,1.01 ± 0.035,0.974 ± 0.045,1.018 ± 0.0094,0.984 ± 0.041
POLR3K (UniProt Q9Y2Y1),0.96 ± 0.068,0.907 ± 0.049,1.05 ± 0.14,0.977 ± 0.19,0.8941 ± 0.0074,1 ± 0.074
SAMM50 (UniProt Q9Y512),1.05 ± 0.15,0.984 ± 0.077,0.946 ± 0.075,0.84 ± 0.076,0.97 ± 0.016,0.961 ± 0.072
FBXO7 (UniProt Q9Y3I1),0.866 ± 0.09,0.893 ± 0.055,0.861 ± 0.087,0.868 ± 0.043,0.893 ± 0.056,0.902 ± 0.033
